In patent US20220041740A1 (LIFEARC, published 2022):
No constants are given. Whether binding was seen depends on the method and setting. Some entries that bind do so weakly or less than the wild type.

Experiments:
[1] = molecular target: T1, IL-17BR (as injected in the Biacore competition assay) (Homo sapiens (Human)) (UniProt Q9NRM6); experiment: Biacore, hD9030 captured on Protein A chip, IL-17BR injected at 10 ug/ml
T1 sequence: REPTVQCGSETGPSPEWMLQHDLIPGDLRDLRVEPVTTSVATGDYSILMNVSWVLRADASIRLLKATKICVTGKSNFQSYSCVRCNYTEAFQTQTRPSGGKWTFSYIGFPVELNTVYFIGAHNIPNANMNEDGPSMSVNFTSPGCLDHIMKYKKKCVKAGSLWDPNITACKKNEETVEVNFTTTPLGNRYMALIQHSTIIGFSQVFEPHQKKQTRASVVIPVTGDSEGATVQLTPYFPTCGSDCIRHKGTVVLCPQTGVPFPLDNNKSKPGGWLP

[2] = molecular target: T1, IL-17BR (as injected in the Biacore competition assay) (Homo sapiens (Human)); experiment: Biacore 2000 competition assay; hD9030 captured on a Protein A chip, IL-17BR injected at 10 ug/ml

B1: humanised antibody hD9030 (antibody, human IgG1, V domains shown)
VH: EVQLVQSGAEVKKPGASVKVSCKTSGYTFISYWMNWVRQAPGQGLEWMGRIDPYDSEIQYNQKFKDRVTLTRDTSISTAYMELSRLRSDDTAVYYCARSGGFDWFAYWGQGTLVTVSS
VL: DIQMTQSPSSLSASVGDRVTITCRTSENIYSNLAWYQQKPGKAPKLLLYDATNLGDGVPSRFSGSGSGTDYTLTISSLQPEDFATYYCQHFWGPPYTFGGGTKVEIK
binding [1]: binds
binding [2]: binds
